In patent US20150307460A1, “Substituted Triazoles and Imidazoles and Their Use as Fungicides” (BASF SE, priority 2012, published 2015):
Some of these results come from one statement about several compounds together.

Tests used:
Assay type in all cases: cell-based
Details in all cases: at 31 ppm, 405 nm, 7 days after inoculation, control = 100%
Alternaria solani = assay: Microtest: activity against early blight caused by Alternaria solani (Alteso)
Botrytis cinerea = assay: Microtiterplate test: activity against the grey mold Botrytis cinerea (Botrci), also comparison test CM1
Leptosphaeria nodorum = assay: Microtest: activity against wheat leaf spots caused by Leptosphaeria nodorum (Leptno)
Septoria tritici = assay: Microtest: activity against leaf blotch on wheat caused by Septoria tritici (Septtr), also comparison test CM3

OC1(c2ccc(-c3ccccc3)cc2)CCCCC1n1cncn1 (centres unmarked) [Compound I-12]
growth (relative growth in % of the pathogen) (Alternaria solani): ≤ 17%
growth (relative growth in % of the pathogen) (Botrytis cinerea): ≤ 12%
growth (relative growth in % of the pathogen) (Leptosphaeria nodorum): ≤ 8%
growth (relative growth in % of the pathogen) (Septoria tritici): ≤ 16%

OC1(c2cccc(-c3ccc(Cl)cc3)c2)CCCCC1n1cncn1 (centres unmarked) [Compound I-19]
growth (relative growth in % of the pathogen) (Alternaria solani): ≤ 17%
growth (relative growth in % of the pathogen) (Botrytis cinerea): ≤ 12%
growth (relative growth in % of the pathogen) (Leptosphaeria nodorum): ≤ 8%
growth (relative growth in % of the pathogen) (Septoria tritici): ≤ 16%

OC1(c2ccc(-c3ccc(Cl)cc3)cc2)CCCCC1n1cncn1 (centres unmarked) [Compound I-15]
growth (relative growth in % of the pathogen) (Alternaria solani): ≤ 17%
growth (relative growth in % of the pathogen) (Botrytis cinerea): ≤ 12%
growth (relative growth in % of the pathogen) (Leptosphaeria nodorum): ≤ 8%
growth (relative growth in % of the pathogen) (Septoria tritici): ≤ 16%

OC1(c2cccc(-c3ccccc3)c2)CCCCCC1n1cncn1 (centres unmarked) [Compound I-34, 1-(3-phenylphenyl)-2-(1,2,4-triazol-1-yl)cycloheptanol]
growth (relative growth in % of the pathogen) (Botrytis cinerea): ≤ 12%
growth (relative growth in % of the pathogen) (Septoria tritici): ≤ 16%

OC1(c2ccc(C#Cc3ccc(F)cc3)cc2)CCCCC1n1cncn1 (centres unmarked) [Compound I-23, 1-[4-[2-(4-fluorophenyl)ethynyl]phenyl]-2-(1,2,4-triazol-1-yl)cyclohexanol]
growth (relative growth in % of the pathogen) (Septoria tritici): ≤ 16%

OC1(c2ccc(Oc3ccc(Cl)cc3)cc2)CCCCC1n1cncn1 (centres unmarked) [Compound I-11, 1-[4-(4-chlorophenoxyl)phenyl]-2-(1,2,4-triazol-1-yl)cyclohexanol]
growth (relative growth in % of the pathogen) (Alternaria solani): ≤ 17%
growth (relative growth in % of the pathogen) (Botrytis cinerea): ≤ 12%
growth (relative growth in % of the pathogen) (Leptosphaeria nodorum): ≤ 8%
growth (relative growth in % of the pathogen) (Septoria tritici): ≤ 16%

OC1(c2ccc(Oc3ccc(Cl)cc3)cc2Cl)CCCCCC1n1cncn1 (centres unmarked) [Compound I-33, 1-[2-chloro-4-(4-chlorophenoxyl)phenyl]-2-(1,2,4-triazol-1-yl)cycloheptanol]
growth (relative growth in % of the pathogen) (Alternaria solani): ≤ 17%
growth (relative growth in % of the pathogen) (Botrytis cinerea): ≤ 12%
growth (relative growth in % of the pathogen) (Leptosphaeria nodorum): ≤ 8%
growth (relative growth in % of the pathogen) (Septoria tritici): ≤ 16%
